Laboratory results published in publication PMC5501724, “Structural Basis for Specific Interaction of TGFβ Signaling Regulators SARA/Endofin with HD-PTP” (Structure(London, England:1993), 2017).

By UniProt entry, the sequences of proteins in these tests, tags left out. Where a name states a change or a piece, a line headed by the entry shows the natural chain unless it says otherwise.
UniProt Q9H444: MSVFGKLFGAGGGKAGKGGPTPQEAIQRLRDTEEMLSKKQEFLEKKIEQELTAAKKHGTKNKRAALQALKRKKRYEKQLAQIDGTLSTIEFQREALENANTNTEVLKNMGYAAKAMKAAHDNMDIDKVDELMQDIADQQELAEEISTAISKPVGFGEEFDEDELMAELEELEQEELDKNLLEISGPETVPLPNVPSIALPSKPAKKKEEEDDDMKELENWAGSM

Biological target: T1, His6-HD-PTP_(Bro1-CC) (1-714), bacterially expressed (human) (UniProt Q9H3S7)
T1 sequence: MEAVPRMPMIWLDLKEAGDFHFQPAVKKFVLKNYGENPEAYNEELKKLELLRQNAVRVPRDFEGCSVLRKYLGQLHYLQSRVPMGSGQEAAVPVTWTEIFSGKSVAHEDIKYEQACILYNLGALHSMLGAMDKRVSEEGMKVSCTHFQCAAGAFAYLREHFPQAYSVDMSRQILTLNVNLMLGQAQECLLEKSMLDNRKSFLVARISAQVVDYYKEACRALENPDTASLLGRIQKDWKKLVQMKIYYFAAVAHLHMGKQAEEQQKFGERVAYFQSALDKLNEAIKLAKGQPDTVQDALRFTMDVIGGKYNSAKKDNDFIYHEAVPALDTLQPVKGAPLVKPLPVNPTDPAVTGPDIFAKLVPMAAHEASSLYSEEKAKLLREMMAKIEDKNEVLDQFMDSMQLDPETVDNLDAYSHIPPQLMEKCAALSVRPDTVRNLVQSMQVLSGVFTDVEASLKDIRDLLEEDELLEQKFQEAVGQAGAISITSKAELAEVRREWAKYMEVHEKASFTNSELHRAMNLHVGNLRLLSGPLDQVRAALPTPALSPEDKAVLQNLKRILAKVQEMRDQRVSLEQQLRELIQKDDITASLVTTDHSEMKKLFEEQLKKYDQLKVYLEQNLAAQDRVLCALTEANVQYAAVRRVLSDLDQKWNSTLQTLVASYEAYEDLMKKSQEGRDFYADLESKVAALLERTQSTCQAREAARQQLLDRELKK
Assay: co-IP; bacterially expressed GST-CHMP4B, full length or truncated (50 μg/ml), and His6-HD-PTP Bro1-CC (5 μg) in 200 μl IP2 buffer with 250 mM NaCl, 2 h at 4°C; immunoprecipitation with anti-His; both purified

binding: no binding
Substance: GST-CHMP4BΔCT, bacterially expressed (from UniProt Q9H444) (domain or fragment)

These are yes or no findings as the source states them, for the method shown. Binding seen in cells or lysates may run through a third protein. Tags and fused reporters may be left off the sequences shown.
